Among the data in the supplement of paper PMC7024190 are log values, retold here.

Structures can show the parent of a compound that is named as a salt. Some of the results follow. Single values are uncertain here, since repeats match poorly.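 A first-round screen of about ten thousand compounds sought those raising reporter output, using human embryonic kidney cells briefly transfected with a plasmid carrying a Renilla luciferase gene driven by the HSV-TK promoter.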

This experiment concerns HEK 293FT. In words: log relative Renilla luciferase luminescence (reporter expression vs reference, reference not stated) (log (base not stated)); higher = higher recombinant reporter expression. The following applies: 10 µM; time after transfection 48 h.
Take `CC1=C(/C=C/C(C)=C/C=C/C(C)=C/C=C/C=C(C)/C=C/C=C(C)/C=C/C2=C(C)CCCC2(C)C)C(C)(C)CCC1` [beta-carotene]: the log is -0.681.
The figure for `c1ccc(CC2=NCCN2)cc1` [tolazoline hydrochloride] is 0.0583; for `NCCCCC(=O)O` [5-aminopentanoic acid hydrochloride] it is 0.0209; for `OCCN1CCN(CCCN2c3ccccc3Sc3ccc(C(F)(F)F)cc32)CC1` [fluphenazine hydrochloride] it is 0.175.
As for `CC(C)(Oc1ccc(CCNC(=O)c2ccc(Cl)cc2)cc1)C(=O)O` [bezafibrate], the log was -0.0516.
Consider `CC1=CC(=O)[C@H]2C(C)(C)CCC[C@]2(C)[C@@]1(O)CCc1ccoc1` [solidagenone], for which the log is -0.0804.
The figure for `CC(=O)OCC(=O)[C@H]1CC[C@H]2[C@@H]3CC=C4C[C@@H](O)CC[C@]4(C)[C@H]3CC[C@]12C` [21-acetoxypregnenolone] is 0.133; for `Clc1ccc2c(c1)C(N1CCNCC1)=Nc1ccccc1O2` [amoxapine] it is 0.134; for `CC(C)[C@@H](C)/C=C/[C@@H](C)[C@H]1CC[C@H]2C3=CC=C4C[C@@H](O)CC[C@]4(C)[C@H]3CC[C@]12C` [ergosterol] it is -0.166.
On to `O=C1c2ccccc2C(=O)C1c1ccccc1` [phenindione], for which the log was -0.0961.
Under `CC1(C)C=Cc2c(c3c(c4c(=O)c(-c5ccc(O)cc5)coc24)OC(C)(C)CC3)O1` [isoosajin] stands -0.129; under `O=C(O)CCc1nc(-c2ccccc2)c(-c2ccccc2)o1` [oxaprozin], 0.0799.
The figure for `Oc1ccc(OCc2ccccc2)cc1` [monobenzone] is 0.033.
Under `C[C@H]1C[C@H]2[C@@H]3CCC4=CC(=O)C=C[C@]4(C)[C@@]3(F)[C@@H](O)C[C@]2(C)[C@@]1(O)C(=O)CO` [betamethasone] stands -0.116; under `CC(C)C1=CC2=CC[C@@H]3[C@](C)(CCC[C@@]3(C)C(=O)O)[C@H]2CC1` [abietic acid], 0.154.
In the case of `Cc1ccc(Cl)c(Nc2ccccc2C(=O)O)c1Cl` [meclofenamate sodium], the log is -0.00605.
Under `O=C(NCCO[N+](=O)[O-])c1cccnc1` [nicorandil] stands 0.0583; under `CCN1CCN(C(=O)N[C@@H](C(=O)N[C@@H]2C(=O)N3C(C(=O)O)=C(CSc4nnnn4C)CS[C@H]23)c2ccc(O)cc2)C(=O)C1=O` [cefoperazone], 0.122.
The figure for `CN(C)CCOc1ccc(/C(=C(/CCCl)c2ccccc2)c2ccccc2)cc1` [toremiphene citrate] is 0.0433.
The figure for `CC(C(=O)O)c1ccc(N2Cc3ccccc3C2=O)cc1` (centres undefined) [indoprofen] is 0.168; for `CO[C@@]12[C@H](COC(N)=O)C3=C(C(=O)C(C)=C(N)C3=O)N1C[C@@H]1N[C@@H]12` [mitomycin] it is -0.785; for `CC1=Nc2ccc(Cl)cc2S(=O)(=O)N1` [diazoxide] it is -0.00201.
As for `O=c1c(-c2ccc(O)cc2)coc2c([C@@H]3O[C@H](CO)[C@@H](O)[C@H](O)[C@H]3O)c(O)ccc12` [puerarin], the log is -0.0348.
Under `O=C(O)C(S)C(S)C(=O)O` (centres undefined) [2,3-dimercaptosuccinic acid] stands 0.0391; under `CCn1nc(C(=O)O)c(=O)c2cc3c(cc21)OCO3` [cinoxacin], -0.0774; under `Cc1cc(/C=C/c2ccc3cc(N(C)C)ccc3[n+]2C)c(C)n1-c1ccccc1` [pyrvinium pamoate], -1.39.
Under `CC(C)=CCC/C(C)=C/CC/C(C)=C/CC/C(C)=C/CC/C(C)=C/CC/C(C)=C/CC/C(C)=C/CC/C(C)=C/CC/C(C)=C/CO` [solanesol] stands 0.00103; under `CC(C)(Oc1ccc(C(=O)c2ccc(Cl)cc2)cc1)C(=O)O` [fenofibric acid], 0.107; under `CCCCNc1ccc(C(=O)OCCOCCOCCOCCOCCOCCOCCOCCOCCOC)cc1` [benzonatate], -0.0803.
The figure for `O=C(O[C@@H]1Cc2c(O)cc(O)cc2O[C@@H]1c1cc(O)c(=O)c2c(O)c(O)cc([C@H]3Oc4cc(O)cc(O)c4C[C@H]3O)c2c1)c1cc(O)c(O)c(O)c1` [theaflavin monogallates] is 0.189.
For the molecule `COC(=O)CC[C@@H](C)[C@H]1CC[C@H]2[C@@H]3CC[C@@H]4C[C@H](O)CC[C@]4(C)[C@H]3C[C@H](O)[C@]12C` [methyl deoxycholate], the log was -0.226.
Under `C[C@@H]1C[C@H]2[C@@H]3CCC4=CC(=O)C=C[C@]4(C)[C@@]3(F)[C@@H](O)C[C@]2(C)[C@@]1(O)C(=O)CO` [dexamethasone] stands -0.0826; under `OC1(c2ccc(Cl)c(C(F)(F)F)c2)CCN(CCCC(c2ccc(F)cc2)c2ccc(F)cc2)CC1` [penfluridol], -0.143; under `O=C(O)COC(=O)Cc1ccccc1Nc1c(Cl)cccc1Cl` [aceclofenac], -0.0443.
In the case of `Cc1cnc(NC(=O)C2=C(O)c3ccccc3S(=O)(=O)N2C)s1` [meloxicam sodium], the log is -0.0183.
`O=C(O)CCCc1ccccc1` [phenylbutyrate sodium]: the log was -0.0457.
On to `O=C(O)CCCc1ccccc1` [sodium phenylbutyrate], for which the log is -0.0106.
`NC1=NCCN1CC(=O)O` [cyclocreatine]: the log came to 0.122.
The figure for `CC1(C)O[C@@H]2C[C@H]3[C@@H]4CCC5=CC(=O)C=C[C@]5(C)[C@@]4(F)[C@@H](O)C[C@]3(C)[C@]2(C(=O)CO)O1` [triamcinolone acetonide] is -0.184.
With `C1CCN2C[C@@H]3C[C@@H](CN4CCCC[C@@H]34)[C@H]2C1` [sparteine sulfate], the log is 0.0674.
In the case of `CC1CC(OC(=O)C(O)c2ccccc2)CC(C)(C)N1C` (centres undefined) [eucatropine hydrochloride], the log is 0.0726.
The figure for `OC[C@H]1O[C@@H](n2cnc3c(NCc4ccco4)ncnc32)[C@H](O)[C@@H]1O` [kinetin riboside] is 0.0238; for `CCCCCCCC/C=C/CCCCCCCCOP(=O)([O-])OCC[N+](C)(C)C` [elaidylphosphocholine] it is 0.0328; for `Cc1nnc(NS(=O)(=O)c2ccc(N)cc2)s1` [sulfamethizole] it is 0.101.
`COc1cc(NS(C)(=O)=O)ccc1Nc1c2ccccc2nc2ccccc12` [amsacrine]: the log is -0.85.
Consider `C#CCCCCCCCCCCCc1ccco1` [avocadynofuran], for which the log is 0.0524.
Under `O=C1C2CC3CC1CC(O)(C3)C2` [idramantone] stands 0.0308.
The figure for `CCN1CCN(c2cc3c(cc2F)c(=O)c(C(=O)O)cn3C2CC2)CC1` [enrofloxacin] is 0.107; for `CC(=O)O[C@@H]1CC2C(C)(C)C(=O)C3OC3[C@]2(C)C2CC[C@@]3(C)[C@H](c4ccoc4)OC(=O)C4OC43[C@@]21C` (some centres undefined) [epoxygedunin] it is -0.0713; for `O=C(NCC(O)CO)c1c(I)c(C(=O)NCC(O)CO)c(I)c(N(CCO)C(=O)CO)c1I` (centres undefined) [ioversol] it is 0.0377.
The figure for `CO/N=C(\C(=O)N[C@@H]1C(=O)N2C(C(=O)O)=C(COC(N)=O)CS[C@H]12)c1ccco1` [cefuroxime sodium] is -0.134.
For the molecule `Nc1ccc(S(=O)(=O)Nc2ccnn2-c2ccccc2)cc1` [sulfaphenazole], the log amounted to 0.0308.
Regarding `FC(F)(Cl)C(F)(F)Cl` [cryoflurane], the log is 0.076.
For the molecule `CCC(=O)c1c(O)cc(O)cc1O` [flopropione], the log is 0.0289.
Turning to `CC1Cc2ccccc2N1NC(=O)c1ccc(Cl)c(S(N)(=O)=O)c1` (centres undefined) [indapamide], the log worked out at 0.0888.
Regarding `CC(C)C[C@@H]1NC(=O)[C@H](CCCN)NC(=O)[C@H](C(C)C)NC(=O)[C@H](Cc2ccc(O)cc2)N[C@@H](CCC(=O)O)C(=O)N[C@@H](CC(N)=O)C(=O)[C@@H](Cc2ccccc2)NC(=O)[C@H](Cc2ccccc2)NC(=O)[C@@H]2CCCN2C(=O)[C@@H](Cc2ccccc2)NC1=O` [tyrothricin], the log was -1.98.
In the case of `Nc1ccc2cc3ccc(N)cc3nc2c1` [proflavine hemisulfate], the log is -1.07.
Under `C[C@H](CCC(=O)O)[C@H]1CC[C@H]2[C@@H]3CC[C@@H]4C[C@H](O)CC[C@]4(C)[C@H]3C[C@H](O)[C@]12C` [deoxycholic acid] stands 0.112.
Take `COc1ccc2cc(C(C)C(=O)O)ccc2c1` (stereo not drawn) [naproxen(+)]: the log is -0.16.
As for `COc1c(O)cccc1O` [2-methoxyresorcinol], the log stood at 0.0145.
Regarding `COC(=O)CC[C@@H](C)[C@H]1CC[C@H]2[C@@H]3[C@H](O)C[C@@H]4C[C@H](O)CC[C@]4(C)[C@H]3C[C@H](O)[C@]12C` [cholic acid, methyl ester], the log was 0.0161.
For `Cc1cc(CC(=O)O)n(C)c1C(=O)c1ccc(Cl)cc1` [zomepirac sodium], the log was -0.064.
The figure for `CCCCCCCCCCCCCCCC(=O)O[C@@H]1[C@@H](O)[C@@H](O)[C@@H]([C@H](NC(=O)[C@@H]2C[C@@H](CCC)CN2C)[C@H](C)Cl)O[C@@H]1SC` [clindamycin palmitate hydrochloride] is 0.0938.
As for `CC12CCC(CC1)C(C)(C)O2` [eucalyptol], the log was -0.0721.
Under `CC(=O)Nc1ncc([N+](=O)[O-])s1` [nithiamide] stands 0.0453.
For the molecule `CC1(C)CC[C@]2(C(=O)O)CC[C@]3(C)C(=CC[C@@H]4[C@@]5(C)CC[C@H](O)[C@@](C)(CO)[C@@H]5CC[C@]43C)[C@@H]2C1` [hederagenin], the log was -0.0748.
The figure for `O=C1CC2(CCCC2)CC(=O)N1CCCCN1CCN(c2ncccn2)CC1` [buspirone hydrochloride] is 0.00694; for `CC[C@H]1OC(=O)[C@H](C)[C@@H](O[C@H]2C[C@@](C)(OC)[C@@H](O)[C@H](C)O2)[C@H](C)[C@@H](O[C@@H]2O[C@H](C)C[C@H](N(C)C)[C@H]2O)[C@](C)(O)C[C@@H](C)[C@@H]2N[C@@H](COCCOC)O[C@H]([C@H]2C)[C@]1(C)O` [dirithromycin] it is 0.0168; for `CC(C)/C(O)=C1/C(=O)O[C@@H](c2ccoc2)[C@]2(C)C(O)[C@@H](O)[C@@]34OC5(C)OC67CC(C)(C(O)[C@]6(O)[C@@H](O)[C@]3(O5)C12)[C@H](CC(=O)O)[C@]74C` (some centres undefined) [hydrolysis product of bussein] it is 0.0605.
